Source: PubChem BioAssay AID1487 (National Center for Advancing Translational Sciences (NCATS), 2009)
Some of the results follow. Further columns of the screen follow, without active or inactive calls. The list favours compounds with an active or inconclusive main result. Words in brackets tell the shape of the fitted curve; partial curves, single points and poor fits give uncertain potencies.

Assay: qHTS Assay for Modulators of Lamin A Splicing
Details: HeLa LMNA splicing GFP/RFP minigene ratio, 48 h
Outline: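 S3 HeLa cells stably expressing lamin A-EGFP splicing minigene plus DsRed2, 600 cells/well, 48 h compound exposure at 37C. Laser-scanning cytometry; analysed as GFP (500-530 nm)/RFP (575-640 nm) total intensity ratio; 0.5% DMSO vehicle.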

[1] = measured here: RFP viability control channel
[2] = measured here: GFP splicing reporter channel

Compound | AC50 [1] | AC50 [2]
Oc1[nH]c(=S)sc1/C=C1\C(c2ccccc2)=Nc2ccccc21 | 12.6 µM [rising, partial curve] | –
O=C1CC(c2ccc3c(c2)OCO3)c2cc3c(cc2N1)OCO3 (stereo not given) | 15.8 µM [rising, single point] | 11.2 µM [rising, partial curve, poor fit]
Cc1cc(OC(=O)c2ccccc2Br)cc(=O)n1C | 31.6 µM [falling, single point] | 20 µM [falling, single point]
O=[N+]([O-])c1cccc(N/N=C/c2cccc(O)c2O)c1 | 31.6 µM [rising, single point] | 35.5 µM [rising, single point]
COc1ccc(N(Cc2cccs2)C(=O)COc2cccc(C)c2C)cc1 | 0.00631 µM [falling, full curve, poor fit] | –
CCOC(=O)N1CCN(C(=O)CSc2nnc(-c3ccc(C(C)(C)C)cc3)o2)CC1 | 20 µM [rising, partial curve, poor fit] | –
Cc1nnc(-c2ccc(Oc3ccc(Br)cc3)c([N+](=O)[O-])c2)o1 | 17.8 µM [rising, single point] | 12.6 µM [rising, single point]
CCOc1ccc(-n2ccnc2SCC(=O)Nc2cccc3ccccc23)cc1 | 1.26 µM [falling, full curve] | 1 µM [falling, full curve]
O=C(CSc1nnc(Cn2nnc3ccccc32)o1)N(Cc1ccc(Cl)cc1)c1ccccc1 | 2.82 µM [rising, partial curve] | –
Nc1nonc1-c1nc2ccccc2n1Cc1ccccc1 | 1 µM [falling, partial curve] | –
Cc1ccnc(-n2c(C)cc(C=O)c2C)c1 | 1.41 µM [falling, full curve, poor fit] | –
COc1cccc(NC(=O)Cn2c(=O)n(-c3cc(OC)c(OC)c(OC)c3)c(=O)c3ccccc32)c1 | 3.55 µM [rising, partial curve, poor fit] | 2 µM [rising, partial curve]
COc1ccccc1C1N(c2ccc(Cl)cc2)C(=O)C2CCCN21 (stereo not given) | – | 7.94 µM [falling, partial curve]
Cc1ccc(C(=O)NC(=S)NCCCN2CCOCC2)cc1 | 10 µM [falling, partial curve] | 15.8 µM [falling, partial curve, poor fit]
Cc1ccc(Nc2c3c(nc4nc(-c5cccs5)nn24)CCCC3)cc1F | 35.5 µM [rising, single point] | –
COc1ccc(N2C(=O)CSC23C(=O)N(Cc2cccc(C(F)(F)F)c2)c2ccccc23)cc1 (stereo not given) | 0.00355 µM [falling, full curve, poor fit] | –
CN1C(=O)/C(=C\c2ccc(-c3ccccc3)o2)SC1=S | 0.562 µM [falling, full curve, poor fit] | 2.82 µM [falling, partial curve]
CCCOC(=O)CCNc1n[nH]c(=O)[nH]c1=O | – | 0.02 µM [rising, full curve]

Taken from the entries so far, two compounds:
Compound | AC50 [1] | AC50 [2]
Oc1[nH]c(=S)sc1/C=C1\C(c2ccccc2)=Nc2ccccc21 | 12.6 µM [rising, partial curve] | –
O=C1CC(c2ccc3c(c2)OCO3)c2cc3c(cc2N1)OCO3 (stereo not given) | 15.8 µM [rising, single point] | 11.2 µM [rising, partial curve, poor fit]

The list continues:

Compound | AC50 [1] | AC50 [2]
Nc1nc(-c2ccccn2)nc(N)c1Cc1ccc(Cl)cc1Cl | 12.6 µM [rising, partial curve, poor fit] | –
COc1ccccc1-c1nc(C#N)c(N2CCN(Cc3ccccc3)CC2)o1 | 11.2 µM [rising, partial curve] | –
CCOC(=O)Cn1nc(C)c(NC(=O)COc2ccccc2)c1C | 0.0282 µM [rising, full curve, poor fit] | 0.02 µM [rising, full curve]
Cc1ccc(OCCN2CCN(C(=O)CCC(=O)Nc3nnc(C(C)C)s3)CC2)cc1 | 7.94 µM [rising, partial curve] | 10 µM [rising, partial curve]
Fc1ccc(COc2ccccc2C(=S)N2CCCC2)cc1 | – | 12.6 µM [rising, single point]
COC(=O)[C@H]1[C@@H](C)N(CCc2cc(OC)c(OC)c(OC)c2)C(=O)N[C@H]1c1ccccc1 | – | 0.000891 µM [rising, full curve, poor fit]
Cc1ccc(C(=O)c2ccccc2C(=O)OCC(=O)NC(=O)NC(C)(C)C)cc1 | – | 35.5 µM [falling, partial curve]
CCN(CC)c1nc(Nc2ccccc2)nc(Oc2ccc(=O)n(C)n2)n1 | 35.5 µM [rising, single point] | 31.6 µM [rising, single point]
CN(C)CCCN(C(=O)c1ccc2c(c1)CCCC2)c1nc2ccc(F)cc2s1 | 1 µM [rising, full curve, poor fit] | –
Cc1cnc(C(=O)Nc2nnc(SCc3c(Cl)cccc3Cl)s2)cn1 | 12.6 µM [rising, partial curve] | 12.6 µM [rising, single point]
CC/C(=C\C1CCCCC1)C(NP(=O)(c1ccccc1)c1ccccc1)c1ccccc1 (stereo not given) | 25.1 µM [falling, single point] | 35.5 µM [falling, single point]
O=C(NCC(c1cccs1)N1CCOCC1)c1cc([N+](=O)[O-])ccc1Cl (stereo not given) | – | 5.62 µM [falling, single point]
Cc1cc(C)n(CNc2nc(C(F)(F)F)cs2)n1 | 11.2 µM [rising, single point] | –
Cc1ccc(NC(=S)N(CCCN2CCN(C)CC2)Cc2cccs2)cc1C | 0.251 µM [falling, full curve] | –
COc1ccc(C(=O)/C=C/c2ccc(N3CCCCC3)c([N+](=O)[O-])c2)cc1 | 35.5 µM [falling, single point] | 35.5 µM [falling, single point]
CCOc1ccc(CNC(=O)c2ccc(Sc3ccc(C)cc3)c(NC(C)=O)c2)cc1OC | 12.6 µM [rising, partial curve] | –
CCOc1cc(C(=O)N2CCc3cc(OC)c(OC)cc3C2)ccc1OC(F)F | 2.82 µM [rising, full curve] | 4.47 µM [rising, full curve, poor fit]
